The target of this experiment is IL-1 type-1 receptor on HeLa cells (UniProt P14778). The experiment can be described thus: competition with 125I IL-1β (100 ng/ml) on HeLa cells; γ-counting.

The chains behind the UniProt entries cited, without tags or fusion partners. Residues count along the entry.
UniProt P14778, residues 18-569: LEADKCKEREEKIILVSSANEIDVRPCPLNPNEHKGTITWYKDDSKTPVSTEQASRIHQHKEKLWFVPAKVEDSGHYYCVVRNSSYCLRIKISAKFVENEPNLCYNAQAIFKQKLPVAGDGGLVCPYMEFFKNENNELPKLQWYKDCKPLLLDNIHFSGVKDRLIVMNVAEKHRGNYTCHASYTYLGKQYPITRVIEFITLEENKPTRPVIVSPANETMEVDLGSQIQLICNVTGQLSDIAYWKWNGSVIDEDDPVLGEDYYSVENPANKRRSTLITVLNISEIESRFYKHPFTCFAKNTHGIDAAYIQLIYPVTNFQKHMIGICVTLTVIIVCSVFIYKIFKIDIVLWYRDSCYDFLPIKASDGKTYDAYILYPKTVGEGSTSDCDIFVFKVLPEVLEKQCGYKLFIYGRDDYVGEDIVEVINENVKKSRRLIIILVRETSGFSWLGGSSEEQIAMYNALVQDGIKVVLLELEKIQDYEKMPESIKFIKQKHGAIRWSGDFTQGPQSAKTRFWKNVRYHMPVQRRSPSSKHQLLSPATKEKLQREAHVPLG
UniProt P18510, residues 26-177: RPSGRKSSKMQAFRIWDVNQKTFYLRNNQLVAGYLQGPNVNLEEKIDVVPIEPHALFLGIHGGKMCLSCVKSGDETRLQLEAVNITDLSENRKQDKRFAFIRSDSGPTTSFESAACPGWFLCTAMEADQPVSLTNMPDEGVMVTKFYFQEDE

These are yes or no findings as the source states them, for the method shown. Some results given as binding are weak or reduced against the parent protein; the word gives no strength.

Take “human IL-1 receptor antagonist (IL-1Ra) (from UniProt P18510 26-177) (ligand)”: the binding result is listed as “binds”.
